Results deposited as PubChem BioAssay AID504804 (Drosophila RNAi Screening Center, 2011).

- Purpose: 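Knock-downs shielding fly cells from apoptosis caused by DNA damage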 (primary screen)
- Cell system: Drosophila Kc cells
- Knock-down reagent: long dsRNA against Drosophila genes, 0.5 µg dsRNA per well
- Duration: 96 h (48 h knock-down, then 48 h drug)
- Conditions: doxorubicin 5 µg/ml for 48 h, added 48 h after dsRNA
- Measured: 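Viability measured as cellular ATP by luminescence after 48 h knock-down then 48 h doxorubicin at 5 µg/ml; unnormalised plate counts for each replicate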
- Reading the numbers: raw ATP luminescence: higher = more viable cells, protection from doxorubicin
- Active means: 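Active when both duplicate wells lie at least 2 SD above the plate mean and protection is confirmed by rescreening and independent dsRNAs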
The screen tested about 19,000 reagents; shown is an unselected part of those with a known target gene and a result. In the full data, 47 (0.25%) got an active call. 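Signals are raw, not normalised; exact z-scores behind calls not deposited; actives needed confirmation, so some wells reaching 2 SD are inactive.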 The numbers tell different reagents against one gene apart. A plus sign joins genes that one reagent is predicted to hit.

no.	target	reagent	SD above plate mean	raw ATP luminescence, replicate 1	raw ATP luminescence, replicate 2	Outcome
1	Or71a	1		49147	39610	inactive
2	Grl62a	1		1.74e5	1.67e5	inactive
3	Gr8a	1		2.97e5	2.89e5	inactive
4	Arp1	1		55010	50587	inactive
5	CG9410 + CG15908	1		45043	63507	inactive
6	CG9410 + CG15908	2		56220	51467	inactive
7	ERR	1		36043	40253	inactive
8	IntS8	1		47250	49233	inactive
9	ksr	1		67663	68530	inactive
10	CG11034	1		35693	29387	inactive
11	CG11034	2		20673	23027	inactive
12	pdm2	1		69253	73987	inactive
13	pdm2	2		64193	79670	inactive
14	pdm2	3		78730	76573	inactive
15	btd	1		3.06e5	3.25e5	inactive
16	Dad	1		45597	53973	inactive
17	UbcE2M	1	2 to 3 SD above plate mean	60077	57703	active
18	fu	1		1.45e5	1.48e5	inactive
19	CG42535	1		1.91e5	1.75e5	inactive
20	CG13698	1		20607	21270	inactive
21	Hsc70-3	1		2.20e5	2.29e5	inactive
22	HisCl1	1		65183	27480	inactive
23	CG31562 (retired record)	1		67933	54397	inactive
24	CG31562 (retired record)	2		65553	65417	inactive
25	asun	1		45907	40630	inactive
26	CG13833	1		57290	65320	inactive
27	goe	1		3.16e5	3.21e5	inactive
28	Zip42C.1	1		55450	56677	inactive

Just “raw ATP luminescence, replicate 2” (6 entries from above):
fu = 1.48e5
CG42535 = 1.75e5
CG13698 = 21270
Hsc70-3 = 2.29e5
HisCl1 = 27480
CG31562 (retired record) #1 = 54397

More records follow.
no.	target	reagent	SD above plate mean	raw ATP luminescence, replicate 1	raw ATP luminescence, replicate 2	Outcome
29	danr	1		64610	71240	inactive
30	CG12539	1		2.88e5	2.91e5	inactive
31	Tsp42Ea	1		40517	79820	inactive
32	Tsp42Ea	2		49147	89480	inactive
33	CG16713	1		31623	37583	inactive
34	CG6178	1		35400	52107	inactive
35	CG42514	1		24197	27413	inactive
36	Mbs	1		89287	84770	inactive
37	Mbs	2		20853	15123	inactive
38	Mbs	3		35463	42973	inactive
39	polybromo	1		35480	34497	inactive
40	Pc	1		51730	45873	inactive
41	CG12426	1		60980	48790	inactive
42	slmb	1		42527	42823	inactive
43	Arv1	1		62560	65850	inactive
44	CG13955	1		49123	76933	inactive
45	bonsai	1		46760	57443	inactive
46	CG15254	1		63493	80783	inactive
47	Pten	1		49697	68853	inactive
48	eEF1beta	1		66677	67680	inactive
49	CG9344	1		58097	55443	inactive
50	Lk6	1		2.19e5	1.90e5	inactive
51	Lk6	2		57127	24517	inactive
52	Vago	1		3.17e5	3.59e5	inactive
53	CG31007	1		1.39e5	1.47e5	inactive
54	Pvf2	1		1.27e5	1.56e5	inactive
55	Pvf2	2		23430	16867	inactive
56	Dhc1	1		60833	51333	inactive
57	CG5131	1		58637	70697	inactive
58	corn	1		57300	37453	inactive
59	Ns1	1		68490	64800	inactive
60	gogo	1		60740	54900	inactive
61	gogo	2		63303	53947	inactive
62	Coq5	1		4.13e5	3.65e5	inactive
63	stw	1		47770	46580	inactive
64	stw	2		63363	49647	inactive
65	Asap	1		63103	80197	inactive
66	Asap	2		73497	61550	inactive
67	CG12362	1		60083	57400	inactive
68	Prosalpha6T	1		48167	72300	inactive
69	CG30289	1		66107	69740	inactive
70	RpL37A	1		21573	19220	inactive
71	CG32686	1		1.92e5	1.97e5	inactive
72	hubl	1		53903	71693	inactive
73	unc-13-4A	1		66590	72137	inactive
74	unc-13-4A	2		77520	95440	inactive
75	unc-13-4A	3		42677	47127	inactive
76	unc-13-4A	4		73420	72680	inactive
77	CG12268	1		67150	85750	inactive
78	CG34268	1		1.45e5	1.43e5	inactive
79	CG13667	1		58680	31557	inactive
80	CG11414	1		74650	62493	inactive
81	CG17108	1		41497	64827	inactive
82	Cyp311a1	1		3.81e5	3.69e5	inactive
83	CG6567	1		64547	49387	inactive
84	Dek	1		63890	60223	inactive
